Measurements as given in patent publication US20170209534A1, “Pseudhymenochirins As Agents For Treatment Of Cancer And Microbial Infections” (priority 2014, published 2017).
Not every detail of the peptide structures is certain; ends, links or a residue may be inferred. Some of these results come from one statement about several compounds together. No end group written: not given here.

What was measured:
[1] = tested on: human breast adenocarcinoma MDA-MB-231 cells; assay: Viability assay (CellTiter-Glo, ATP), MDA-MB-231; format: cell-based; conditions: 24 h exposure; mean ± S.E.M.; listed as Ps-2 Pa; read-out: LC50 MDA-231
Method: (§1) For cytotoxicity assay, the effect of the peptides on three different types of cancer cells were analysed, human non-small cell lung adenocarcinoma A549 cells, human breast adenocarcinoma MDA-MB-231 cells and human colorectal adenocarcinoma HT-29 cells. As control, HUVEC cell line was selected.
(§2) A549 cell line was maintained in RPMI 1640 medium containing 2 mM L-glutamine and supplemented with 10% FCS at 37° C. MDA-MB-231 and HT-29 cell lines were maintained in DMEM medium supplemented with 10% FCS at 37° C. The medium for cancer cells were further supplemented with antibiotics, penicillin 50 U/mL and streptomycin […]. HUVEC cells were maintained in EndoGRO MV-VEGF Complete Media Kit at 37° C.
(§3) The cells from each of the four cell lines were seeded individually in a 96-wells plate at a cell density of 5×10^3 cells/well. […]
(§4) The effect of the peptides on the cell viability was determined by the measurement of the concentration of ATP using CellTitre-Glo Luminescent Cell Viability assay. Luminescent signals were measured using a GLOMAX Luminometer system.
(§5) The LC50 value was calculated for both the peptides for individual cell lines by conducting non-linear regression analysis using commercially available software (SPPS version 17.0; SPS Inc, Chicago, Ill., USA). […]

[2] = tested on: P. aeruginosa; assay: MIC by micro-dilution, P. aeruginosa; format: cell-based; conditions: reference strain; listed as Ps-2 Pa
Method: (§6) Minimum Inhibitory Concentration (MIC) of the peptides was determined in duplicate in three independent experiments by standard micro-dilution methods according to CLSI guidelines (Clinical Laboratory and Standards Institute 2008a, 2008b) using 96-well microtitre cell-culture plates.
(§7) For bacteria assays, serial dilutions of the peptides (0.6-80 μM) in Mueller-Hinton broth (50 μL) were mixed with an inoculum of 50 μL of 10^6 colony forming units (CFU)/mL) from a log-phase culture. The peptide and inoculum mixture was incubated for 18 h at 37° C. in a humidified atmosphere. For yeast, an inoculum of 5×10^4 CFU/mL from Candida albicans was incubated in the presence of serial dilutions of the peptides (0.6-80 μM) in RPMI 1640 medium for 48 h at 35° C. After incubation, the absorbance at 630 nm of each well was determined using a microtiter plate reader.
(§8) As a control, incubations were carried out in parallel with increasing concentrations of antibiotics wherever the isolate was originally susceptible (ampicillin for S. aureus and E. coli, ciprofloxacin for K. pneumoniae and P. aeruginosa, and amphotericin B for C. albicans).

[3] = tested on: human non-small cell lung adenocarcinoma A549 cells; assay: Viability assay (CellTiter-Glo, ATP), A549; format: cell-based; conditions: 24 h exposure; mean ± S.E.M.; listed as Ps-2 Pa; read-out: LC50 A549
[4] = tested on: K. pneumoniae; assay: MIC by micro-dilution, K. pneumoniae; format: cell-based; conditions: reference strain; listed as Ps-2 Pa
Method: as §6, §7, §8

[5] = tested on: E. coli; assay: MIC by micro-dilution, E. coli; format: cell-based; conditions: reference strain; listed as Ps-2 Pa
Method: as §6, §7, §8

[6] = tested on: S. aureus; conditions: endogenous peptide, preliminary data, Conlon et al., 2013; cited from earlier work
[7] = tested on: human colorectal adenocarcinoma HT-29 cells; assay: Viability assay (CellTiter-Glo, ATP), HT-29; format: cell-based; conditions: 24 h exposure; mean ± S.E.M.; listed as Ps-2 Pa; read-out: LC50 HT-29
Method: as §1, §2, §3, §4, §5

Row | Sequence | CC50 [1] [µM] | Minimum inhibitory concentration P. aeruginosa [2] [µM] | CC50 [3] [µM] | Minimum inhibitory concentration K. pneumoniae [4] [µM] | Minimum inhibitory concentration E. coli [5] [µM] | growth of reference strain of S. aureus [6] | CC50 [7] [µM]
1 | GIFPIFAKLLGKVIKVASSLISKGRTE [Pseudhymenochirin-2Pa, Pseudhymenochirin-2 Pa] | ≤ 12 | > 80 | ≤ 12 | > 80 | > 80 | inhibited the growth | ≤ 12
2 | IKIPSFFRNILKKVGKEAVSLIAGALKQS [Pseudhymenochirin-1Pb] | – | – | – | – | – | inhibited the growth | –
